Results from PubChem BioAssay AID602313 (National Center for Advancing Translational Sciences (NCATS), 2012).
About 760 (0.19%) of roughly 390,000 compounds were called active. This list was built around the results that the source calls inconclusive (neither active nor inactive); the mix of calls is not that of the screen. Calls come from the whole dose curve; as a rule, active = well fitted inhibition curve with a large enough effect; inconclusive = small, poorly fitted or top-dose-only effect; inactive = flat fitted curve, though single readings scatter. A potency beside an inconclusive call is a rough fit, not a confirmed value.

experiment: qHTS for Inhibitors of Vif-A3F Interactions: qHTS; conditions: HeLa A3F-eYFP + Vif (tagged APOBEC3F with the HIV-1 protein that degrades it), YFP fluorescence increase; series mostly up to 46.1 µM; note: nearly all actives have a fitted effect of over 65% in size
Summary of the method: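 Fluorescence increase (Ex 488/Em 500-530) after overnight compound treatment at 37 deg C flags inhibition of Vif-driven A3F-eYFP loss in stable HeLa A3F-eYFP/Vif cells seeded overnight beforehand.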
Potency is the fitted concentration of half-maximal effect.

**Q.** With `Cc1ccc(/C=C\c2nccc3c2[nH]c2ccccc23)cc1` as the compound, how does the Potency read?
**A.** inconclusive: 31.6 µM [inhibitor, single point]

**Q.** Which Potency does the source give for `O=C(CCCn1c(=O)c2cccn2c2cccnc21)NCc1ccccc1Br` here?
**A.** inactive

**Q.** With `O=C1S/C(=C\c2ccc(N3CCOCC3)o2)C(=O)N1Cc1ccc(F)cc1` as the compound, how does the Potency read?
**A.** inconclusive: 3.16 µM [inhibitor, full curve, poor fit]

**Q.** For `C=CCNC(=S)N1CCN(c2ncc(C(F)(F)F)cc2Cl)CC1`, which Potency is on record?
**A.** inactive

**Q.** Which Potency does the source give for `O=C(C[n+]1cccc2ccccc21)c1ccc(NC(=O)c2ccccc2)cc1` here?
**A.** inconclusive: 17.8 µM [inhibitor, single point]

**Q.** Which Potency does the source give for `CC(=O)NS(=O)(=O)c1ccc2c(c1)C(=O)c1cc(S(=O)(=O)NC(C)=O)ccc1-2` here?
**A.** inconclusive: 12.6 µM [inhibitor, single point]

**Q.** For `O=S(=O)(NCC1(N2CCOCC2)CCCCC1)c1ccccc1Cl`, which Potency is on record?
**A.** inactive

**Q.** Which Potency does the source give for `O=C(CC1S/C(=N/N=C2CCCCCC2)NC1=O)Nc1ccccc1F` (centres undefined) here?
**A.** inconclusive: 28.2 µM [inhibitor, single point]

**Q.** With `Cc1cccc(-c2nnn3c2nc(NCc2ccc4c(c2)OCO4)c2ccccc23)c1` as the compound, how does the Potency read?
**A.** inconclusive: 8.91 µM [inhibitor, partial curve, poor fit]

**Q.** For `Cc1[nH]n(-c2ccccc2)c(=O)c1N=Nc1ccc2c(c1)OCCO2`, which Potency is on record?
**A.** inactive

**Q.** With `O=C(N/N=C/C=C/c1ccco1)c1ccncc1` as the compound, how does the Potency read?
**A.** active: 11.2 µM

**Q.** With `COc1cc(/C=C2\SC(=S)N(NC(=O)c3ccncc3)C2=O)ccc1O` as the compound, how does the Potency read?
**A.** inactive

**Q.** Which Potency does the source give for `CCc1ccccc1N(CC)C(=O)C1CCN(c2ncnc3c2nc2n3CCCCC2)CC1` here?
**A.** inactive

**Q.** With `NNc1nc2sc3c(c2c(=O)n1-c1ccccc1)CCCC3` as the compound, how does the Potency read?
**A.** inconclusive: 20 µM [inhibitor, single point]

**Q.** For `CC(C)C[C@@H](CNCC(=O)[C@H](Cc1c[nH]c2ccccc12)NC(=O)c1[nH]cnc1C(=O)N[C@H](CN)CC(C)C)NC(=O)c1nc[nH]c1C(=O)N[C@@H](CC(=O)O)C(=O)O`, which Potency is on record?
**A.** inactive

**Q.** For `COc1cc(C2c3[nH]c4ccccc4c3C[C@H]3C(=O)N(CCO)CC(=O)N23)cc(OC)c1OC` (some centres undefined), which Potency is on record?
**A.** inconclusive: 25.1 µM [inhibitor, partial curve, poor fit]

**Q.** Which Potency does the source give for `O=C(Nc1ccc2c(c1)nc1n2CCN(Cc2ccccc2)C1)NC1CCCCC1` here?
**A.** inactive

**Q.** For `O=C(Cc1cccs1)Nc1ccc(-c2nnc(-c3ccco3)o2)cc1`, which Potency is on record?
**A.** inconclusive: 15.8 µM [inhibitor, single point]

**Q.** With `COc1cc(C(=O)NC(=S)Nc2ccc(Cl)cn2)cc(OC)c1OC` as the compound, how does the Potency read?
**A.** inconclusive: 6.31 µM [inhibitor, single point]

**Q.** With `Oc1[nH]c2ccccc2c1N=Nc1ccc(F)cc1` as the compound, how does the Potency read?
**A.** inconclusive: 31.6 µM [inhibitor, single point]

**Q.** With `O=C(N/N=C/c1ccc([N+](=O)[O-])o1)C(O)c1ccccc1` (centres undefined) as the compound, how does the Potency read?
**A.** inactive

**Q.** Which Potency does the source give for `COc1ccc(C(=O)NCC(c2ccco2)N2CCCCC2)cc1S(=O)(=O)Nc1ccc(C)cc1` (centres undefined) here?
**A.** inconclusive: 22.4 µM [inhibitor, single point]

**Q.** Which Potency does the source give for `COC(=O)CC1C(=O)NC2CCCCC2N1C(=O)CCl` (centres undefined) here?
**A.** inactive

**Q.** For `Cc1ccc(C)c(-c2cc(C(=O)Nc3cccc(C(=O)O)c3)c3ccccc3n2)c1`, which Potency is on record?
**A.** inconclusive: 35.5 µM [inhibitor, partial curve, poor fit]

**Q.** Which Potency does the source give for `COc1ccc(C(=O)NC(=S)NNC(=O)c2ccccc2C)cc1` here?
**A.** inactive

**Q.** For `Oc1ccccc1C1SC(c2ccccc2O)SC(c2ccccc2O)S1` (centres undefined), which Potency is on record?
**A.** inconclusive: 2.82 µM [inhibitor, single point]

**Q.** For `CCc1cccc(C)c1NC(=O)CCS(=O)(=O)c1ccc2c(c1)oc(=O)n2C`, which Potency is on record?
**A.** inactive

**Q.** With `Cc1ccc(S(=O)(=O)CC(C)N2CCOCC2)c(S(=O)(=O)CC(C)N2CCOCC2)c1` (centres undefined) as the compound, how does the Potency read?
**A.** inactive

**Q.** Which Potency does the source give for `O=C(/C=C/c1ccc(Cl)cc1Cl)Nc1cccc(S(=O)(=O)NC2=NCCCCC2)c1` here?
**A.** inactive

**Q.** For `CC(C)c1ccc(Nc2c(-c3ccc(N(C)C)cc3)nc3cnccn23)cc1`, which Potency is on record?
**A.** inactive

**Q.** With `CCC(C(=O)NC1CCCC1)N(Cc1ccccc1Cl)C(=O)c1snc(C(N)=O)c1N` (centres undefined) as the compound, how does the Potency read?
**A.** inconclusive: 35.5 µM [inhibitor, single point]

**Q.** Which Potency does the source give for `COC(=O)C1=C(C)N(Cc2ccccc2)C(=S)N[C@H]1c1ccccc1` here?
**A.** inconclusive: 35.5 µM [inhibitor, single point]

**Q.** With `CCCCC(=O)Nc1ccc(NC(=O)c2ccc([N+](=O)[O-])cc2)cc1OC` as the compound, how does the Potency read?
**A.** inconclusive: 35.5 µM [inhibitor, single point]

**Q.** With `O=C(c1ccccc1)c1ccc2c(c1)OCCCO2` as the compound, how does the Potency read?
**A.** inconclusive: 3.16 µM [inhibitor, partial curve, poor fit]

**Q.** Which Potency does the source give for `CN(C)c1cc(Nc2cccc(O)c2)c([N+](=O)[O-])c2nonc12` here?
**A.** inconclusive: 35.5 µM [inhibitor, single point]

**Q.** Which Potency does the source give for `CCN1CCc2c(sc(NC(=O)c3ccc(S(=O)(=O)N4CCCCCC4)cc3)c2C(=O)NC)C1` here?
**A.** inconclusive: 35.5 µM [inhibitor, single point]

**Q.** Which Potency does the source give for `CCC(=O)N(CC)C1=C(O)c2ccccc2C(=O)C1=O` here?
**A.** inconclusive: 25.1 µM [inhibitor, single point]

**Q.** Which Potency does the source give for `CCOc1ccc(N2C(=O)C(CC(=O)Nc3ccccc3)N(Cc3ccccn3)C2=S)cc1` (centres undefined) here?
**A.** inconclusive: 3.55 µM [inhibitor, single point]

**Q.** With `COc1ccccc1NC(=O)c1sc2nc3n(c(=O)c2c1C)N=C(c1cccc(Br)c1)CS3` as the compound, how does the Potency read?
**A.** inactive

**Q.** Which Potency does the source give for `COc1ccc(CCNC(=O)c2coc(=O)c(Br)c2)cc1` here?
**A.** inconclusive: 31.6 µM [inhibitor, single point]

**Q.** With `COc1ccc(OC)c(/C=C(\C#N)c2nc(-c3ccc(F)cc3)cs2)c1` as the compound, how does the Potency read?
**A.** inconclusive: 10 µM [inhibitor, partial curve, poor fit]

**Q.** Which Potency does the source give for `Cc1cccc(C)c1NC(=O)CNC(=O)c1c(C)nn(C)c1Cl` here?
**A.** inconclusive: 6.31 µM [inhibitor, single point]

**Q.** With `COc1cccc(C2C=C(c3ccc(Br)s3)Nc3ncnn32)c1OC` (centres undefined) as the compound, how does the Potency read?
**A.** inconclusive: 31.6 µM [inhibitor, single point]

**Q.** For `Cc1cc(=O)oc(C)c1C(=O)Nc1ccc(N(C)C)cc1`, which Potency is on record?
**A.** inconclusive: 35.5 µM [inhibitor, single point]
